# Experimental data from PubChem BioAssay AID1508600 (Functional Genomics Laboratory (NCATS/FGL), 2020).
# The campaign covered roughly 53,000 sequences. About 3,700 (7%) were called active.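 Rule for the calls: active = gene knockdowns whose robust z-score for IL-1 alpha signal is at least 2 or at most -2, so actives lie on both sides; inactive = the rest.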 The list shows a part of the results.
# Assay: Components of the Cytosolic LPS Sensing Pathway: Gene Identification via Genome-wide siRNA Screen;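 note: robust z of the log signal after scaling to non-targeting control siRNA wells of the plate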
# Conditions: RAW264.7 macrophages, IL-1a HTRF, actives lie on both sides, screened at 100 nM (by protocol), cells primed 5 h with Pam3CSK4 first
# Procedure, shortened: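 Using IL-1a HTRF as read-out, the screen measured release from RAW264.7 cells after 48h siRNA knockdown (100 nM), 5 h Pam3CSK4 priming and 24 h cytosolic LipidA. Values were expressed relative to negative-control wells as robust z-scores.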
row,Sequence,z-score
1,GAUUUCUUUGUGUCAUUGATT against Vmn1r35,inactive: 0.495
2,GCGGAGAGAAAGAGCUGAGTT against C230071H18Rik,inactive: 1.07
3,CCAUCCUUCCGAAAGACGATT against Lcn10,inactive: 0.465
4,GCCGGUUGUAGAAAGGAGUTT against Frs2,inactive: 0.354
5,GGAGAUAUGACCAUCUCCUTT against Olfr798,inactive: 1.47
6,GGCUAUCACCUCCAACACCTT against Fkbp8,inactive: -1.04
7,CGGUCUGUUCCUAAUAAAUTT against Faim2,inactive: -1.78
8,GGGAGAUCAUGAUAGCAGCTT against Cox5b,inactive: -0.828
9,CGGGAAGCAUAUUAUCUAUTT against Zfp770,inactive: -0.25
10,GGCUAGAAAACCUCUAUCUTT against Lrrc18,active: -2.11
11,GGACUGAGAGGGAUGGUAATT against A530016L24Rik,inactive: 0.293
12,GGGCAACAAGGAGUACUCATT against Prss45,inactive: -1.88
13,GGGCCAAAAGCUUAUUAAUTT against Arhgap20,inactive: 0.542
14,GGCCUGGUUCUGCAUAAGCTT against Gas2,inactive: 0.458
15,GGUUUAGGGCUUGCUAUAUTT against Mal,inactive: -0.244
16,GCCUUAAGGUCUCCGUUCUTT against Gse1,inactive: 0.467
17,GUGGUCGGAAACACAAAGATT against Snrpc,inactive: -0.296
18,GGGACAAGGACUUUAAAAATT against Scamp2,inactive: 0.566
19,GGAGUGAUAGAAUCAACAUTT against Manea,inactive: -0.369
20,CCCAUUGAACUGCAUACUATT against Car3,inactive: 0.296
21,GGAGCUCUAUAGAAAUGCATT against Cul3,inactive: -1.45
22,GGCUUGGUGUUUUGAUUAGTT against Rogdi,inactive: 1.6

row,Sequence,z-score
1,GGAGCUCCUGAACAGGAUCTT against Gpr26,active: 2.13
2,GGCAUGCUAGGAGACAAGATT against Sh3rf3,inactive: 0.148
3,CCAUAUGUAGCUAUGGUUATT against Cul2,inactive: 0.741
4,GGCUGAAGAACCCUCCAAUTT against Plb1,inactive: -0.8
5,GGCAGCUGUUCAUCAUUACTT against Nudt16l1,inactive: 1.97
6,GGAUACCAUCCUAGGCCUGTT against Ephx3,inactive: -0.603
7,GGCUAUGUGCUGCACUUGCTT against Cyp27a1,inactive: -0.282
8,GCUUAACUAGUAUCCUAUGTT against Tas2r135,inactive: -0.228
9,GGGCUUCACUAAUGUCAAGTT against Gipc1,inactive: -0.57
10,GGUUCACCCAGGAAGUUCATT against Scn9a,inactive: -1.13
11,GGGCCAAGGAAGAACUUCATT against Clec12a,inactive: -0.655
12,GCAUUGAAAUCGUUAAAGCTT against Gorab,inactive: -0.324
13,GGUACAAAGAUGGUUGCGATT against Alkbh2,inactive: 0.451
14,CCCAUUGUGGGCUUAUGGATT against 9430025C20Rik,inactive: -1.71
15,GCAGCUUUUGUACUAUCUATT against Kifap3,inactive: 0.92
16,GGCCAUUGUAGAGCUGGUATT against Myh9,inactive: 0.47
17,CCUGUUUGCAUAGAUAGACTT against Pdgfc,inactive: -0.464
18,GGAACAAGGAUGUAAAAUUTT against Olfr1090,inactive: -0.751
19,GGGCAUGAUAAGGAAGACATT against 1700029F12Rik,inactive: -1.32
20,AACUGUCACCGUUCAAACCTT against Ociad2,inactive: 0.632
21,GCAGGUUGCACCAUGUAGATT against Slc25a42,inactive: 0.701
22,GCUGCUAAAGGUGACAUUCTT against Col4a4,inactive: 0.129

row,Sequence,z-score
1,GCAAUGAGUAUUCAUGCAATT against Sec61a2,inactive: -1.86
2,GGGACUAUGACAAAACAGCTT against Atad2,inactive: 0.0122
3,GCUGUCUUAUUGUGAACCUTT against Olfr1173,inactive: -1.52
4,GGUCCUACCAUCUUAUAUGTT against Serpina5,inactive: 1.63
5,CGCGAGUUAUUUCUCAUAUTT against Pik3cb,inactive: -0.0248
6,AUAACUACGUAUGUGAUGUTT against Olfr885,inactive: -0.278
7,GGUGAAGAAGAUGACAUUATT against Spock3,inactive: -0.795
8,GAAAUAGAUGAAGACCGGATT against Ppp1r1a,inactive: -0.0759
9,CCUUUGUGUAUUCAAGGAGTT against Plekhg2,inactive: -0.725
10,GGACAAUGUGAUGAAGAUUTT against Fgfr3,inactive: -0.843
11,CCCUCUACUAUGCGUUCUATT against Otop3,inactive: 0.705
12,CGGGACUGUAAAUUGACCUTT against Scube3,inactive: 0.272
13,GCUAUUCAAGUUUAUACGCTT against Tmed5,inactive: 0.677
14,GGGCUUUAAGGAAAAGUUUTT against Higd2a,inactive: 0.475
15,GGGCUCUUUAGUACUAGAATT against Spn,inactive: -0.612
16,GGAAGUUCAGAAAAAGGCATT against Slc46a3,inactive: -0.0487
17,GGUCAUUGCCACACAGAUCTT against Chac1,inactive: 0.623
18,GGAAGAGACGAAAUCCUUUTT against Sos1,inactive: 0.605
19,CCCUCACAUUCGUCUACCUTT against Mchr1,inactive: 0.0952
20,GGACUCUGGUUAGGAGUUGTT against Tbce,inactive: -1.24
21,GUCUACCAGAUCCUUCCCUTT against H2-Q8,active: -2.25
22,GGUUCCAAGAGUGACAAUATT against Nnt,inactive: -1.05

row,Sequence,z-score
1,CCCGUAACCAUUUACUGGUTT against Tyro3,inactive: 0.85
2,GCCCAGCUCAAAUCUCCAUTT against Defb41,inactive: 1.05
3,GCUUCCAAGAUGGAACUACTT against Psmb10,inactive: 0.657
4,GGGCAAGGAUUCCCUGUAUTT against Rpl36al,inactive: -1.72
5,GCUGAAACAAAGGGUAUAUTT against Map2k7,inactive: -1.28
6,GCUUAAGUGGAGGUCCCUUTT against Tmem151a,inactive: 0.0731
7,GGACACCUCCAAGAAGAGUTT against Ap1s1,inactive: 0.389
8,GCAUUGGAUACCCUCAGUATT against Krtap19-2,inactive: -0.521
9,GGUUUUUCUAGCUACAUUATT against Slc17a5,inactive: 0.763
10,CCAAGGCUUGUGGCCUUAUTT against Comtd1,inactive: -0.457
11,GCACUAUGAACGGAAGUUGTT against Map3k12,inactive: -0.807
12,GGCAGUGAUAUACAGGUGGTT against Ptpn14,inactive: -0.221
13,GCCGAGAAUUAUAUUUAACTT against Itga2,inactive: 0.45
14,GGAGAGCAUUCCUUGGAUUTT against Rxfp2,inactive: 1.35
15,GGGAAGGAACAGUAAAUAATT against Zfp33b,inactive: -1.07
16,GGAGUUCAUGCAAGUCCGATT against Tmem138,inactive: 1.01
17,GCAAUCUGUCCUUCUGUGATT against Olfr1133,inactive: -0.818
18,GCAAUGACUUGAACUAUUUTT against Dipk2b,inactive: 0.163
19,GCUACAAGAGAACAAUAGCTT against Lcn2,inactive: -0.59
20,GGUUCUGAUGAGUCUCAUGTT against Mmadhc,inactive: -1.51
21,GGCUUAAGGACAAGAAGAUTT against Gsn,inactive: -0.747
22,GGAGAAAGAAGCCUCUCCATT against Mageb18,inactive: 1.11

row,Sequence,z-score
1,GGACAGAAGUGCAACAUCUTT against Dio1,inactive: -0.0837
2,GGAAUCCUCACCAGCUUAATT against Slc50a1,inactive: -1.23
3,GGGAAGGAUCACGAGGUUGTT against Dtwd1,inactive: 0.964
4,GGAACAGUUACUUGAGAGUTT against Zfp786,inactive: 0.759
5,GAGAGUGAUCACUUAGGCATT against Gm10319,inactive: -0.00379
6,CCGCGUGUAUAAGUUGGUGTT against Mrpl9,inactive: 1.23
7,GCACUCAUACCUUAAGCUUTT against Clec2g,inactive: 0.786
8,GGUUGGACGUGGUGAAGAATT against Chtf18,active: -2.24
9,GCCACUGCUAUAUUCGCAUTT against Slc35d3,inactive: 0.0899
10,GGAAGUCAGACAGAUUUAATT against Prss33,active: 2.69
11,GGGUCAGAUGCAGACUGUUTT against Fam110c,inactive: 0.739
12,CCGGAGAGAAGGUCUAAUGTT against Galnt2,inactive: 0.109
13,CGUAAAUAUGCCCGUAGUUTT against Bpifa1,inactive: 0.31
14,GCUGGAUUUGGACUCUUAGTT against Vmn1r16,inactive: 1.1
15,GGUAACUGUGGAGAACUUUTT against Pigk,inactive: 0.573
16,GGAGAUUUCUGAAACUAGATT against Tiaf2,active: -2.09
17,GGAGUGAAGAGAAAUGAGATT against Lat2,inactive: -1.81
18,GCUUAUCAAAACAUCGUGATT against Zfp536,inactive: 1.05
